Results from PubChem BioAssay AID1347076 (National Center for Advancing Translational Sciences (NCATS), 2019).
Hit rate of the full screen: of about 400,000 compounds, about 13,000 (3.2%) were called active. Inconclusive means that the source gave no clear call. Such entries were picked first, then a sample of the others. Calls come from the whole dose curve; as a rule, active = well fitted cell-killing curve with a large enough effect; inconclusive = small, poorly fitted or top-dose-only effect, or effect the other way; inactive = flat fitted curve, though single readings scatter. Potencies of inconclusive entries are doubtful fits and often do not repeat.

Assay: qHTS assay for MDR1-selective chemotherapeutics: Primary screen using the drug-selected MDR subline cells KB-V1; note: nearly all actives have a fitted effect of over 60% in size
Conditions: KB-V1 MDR cells viability, CellTiter-Glo, 72 h; activity change, negative = cytotoxicity: at 46.1 µM (top of the series)
Method in brief: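 Readout: CellTiter-Glo luminescence, 10 min after addition. Cells: KB-V1 MDR subline, 72 h at 37 degrees C with compound. Analysis: corrected, normalized data fitted to concentration-effect curves.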
% is set by controls: 0 for no effect and ±100 for the full control effect; potency is the fitted concentration of half-maximal effect.

Row | Structure (SMILES) | Potency | activity change, negative = cytotoxicity
1 | CCCC(c1nnnn1CCc1ccccc1)N1CCN(C(=O)c2ccco2)CC1 (stereo unspecified) | inactive | 
2 | CCC(=O)N1CCc2cc(Br)cc(S(=O)(=O)CCC(=O)N3CCN(c4ccccc4OC)CC3)c21 | inactive | 
3 | Cc1cccc2[nH]c(-c3ccc(NC(=O)c4ccco4)cc3)nc12 | inconclusive: 29.1 µM [cytotoxic, single point] | 
4 | CCOC(=O)c1ccc(N2CCN(c3ccc(F)cc3)CC2)c(NC(=O)Nc2cccc(OC)c2)c1 | inconclusive: 5.17 µM [cytotoxic, full curve, poor fit] | 
5 | COc1ccccc1C(=O)Nc1c2c(nn1-c1cccc(C)c1C)CS(=O)(=O)C2 | inconclusive: 2.06 µM [cytotoxic, full curve, poor fit] | 
6 | CCc1sc(C(=O)N(CCOC)c2c(N)n(Cc3ccccc3)c(=O)[nH]c2=O)cc1C | inactive | 
7 | COc1ccc(-c2nnc(SCc3ncc(-c4ccccc4)o3)o2)cc1 | inconclusive: 32.6 µM [cytotoxic, single point] | 
8 | CCCn1c(=O)c(C(=O)Nc2cccc(C)c2)c(O)c2ccccc21 | inactive | 
9 | COc1ccc(NC(=O)C2(C)Cc3c(-c4ccc(N(C)C)cc4)ccnc3O2)cn1 (stereo unspecified) | inconclusive: 20.6 µM [cytotoxic, single point] | 
10 | O=C1C2CC=CCC2C(=O)N1c1ccc(NCCc2ccc(O)cc2)c([N+](=O)[O-])c1 (stereo unspecified) | inconclusive: 8.2 µM [cytotoxic, partial curve] | 
11 | O=C(CN1C(=O)c2ccccc2C1=O)NCCc1c[nH]c2ccc(Cl)cc12 |  | inconclusive: 33.5%
12 | COc1ccccc1N1CCN(S(=O)(=O)c2ccc3[nH]c4c(c3c2)CCCC4)CC1 | inconclusive: 18.4 µM [cytotoxic, single point] | 
13 | Cn1nc(C(F)(F)F)c2cc(NC(=O)OCc3ccc(C(C)(C)C)cc3)sc21 | inactive | 
14 | COc1ccc(C(=O)C(Cc2cc(C(C)=O)ccc2OC)N2CCCC2)cc1 (stereo unspecified) | inactive | 
15 | Cc1ccc(NS(=O)(=O)c2c(C)[nH]c(C)c2C(=O)N2CCCCC2)cc1F | inactive | 
16 | CCCn1nc(C(=O)Nc2ccc3c(c2)OCO3)c2ccccc2c1=O |  | inconclusive: -68.7%
17 | Oc1c(Cl)cc(Cl)cc1/C=C/c1ccc2cccc(O)c2n1 | inconclusive: 29.1 µM [cytotoxic, single point] | 
18 | N#Cc1c(N)nc2c(c1-c1ccncc1)CCCC2 | inconclusive: 16.4 µM [cytotoxic, partial curve] | 
19 | COc1ccc2nc3ccccc3nc2c1NC(=O)c1ccc(Cl)cc1Cl | inconclusive: 2.59 µM [cytotoxic, full curve] | 
20 | COc1ccc(OC)c(C(c2nnnn2CCC(C)C)N2CCN(C(=O)c3ccco3)CC2)c1 (stereo unspecified) | inconclusive: 14.6 µM [cytotoxic, partial curve, poor fit] | 
21 | O=C1C(Nc2ccccc2)=C(NS(=O)(=O)c2ccccc2)C(=O)c2ccccc21 | inconclusive: 2.91 µM [cytotoxic, partial curve, poor fit] | 
22 | COc1ccc(C(=O)N2CC(=O)Nc3ccc(C)cc3C2c2ccccc2)c(OC)c1 (stereo unspecified) | inactive | 
23 | c1ccc(CN2CCN(CCOCCOc3ccc4c(c3)CCC4)CC2)cc1 | inconclusive: 9.2 µM [cytotoxic, partial curve] | 

Row | Structure (SMILES) | Potency | activity change, negative = cytotoxicity
24 | CSc1ncccc1C(=O)Nc1cccc(S(=O)(=O)N2CCCCCC2)c1 | inactive | 
25 | CCCN(CC1CC1)C(=O)COC(=O)c1[nH]c(C)c(C(=O)OCC)c1C | inconclusive: 23.1 µM [cytotoxic, partial curve, poor fit] | 
26 | Cc1ccc(NC(N)=S)cc1 | inconclusive: 32.6 µM [rising, single point] | 
27 | O=C(Cc1ccc(S(=O)(=O)N2CCOCC2)s1)Nc1cc(C(F)(F)F)ccc1N1CCCC1 | inactive | 
28 | CCOc1ccccc1C(=O)N(CN1CCCC1=O)c1ccc(C)c(Cl)c1 | inconclusive: 9.2 µM [cytotoxic, partial curve] | 
29 | COc1cccc(C=NNC(=O)C(C)SC(C)C(=O)NN=Cc2cccc(OC)c2)c1 (stereo unspecified) | inactive | 
30 | COc1ccc(-c2nc3ccc(Br)cn3c2Cc2ccsc2)cc1OC | inconclusive: 16.4 µM [rising, single point] | 
31 | CCCC(=O)NC(=S)Nc1nc(-c2ccc(OC)cc2)cs1 | inconclusive: 32.6 µM [cytotoxic, single point] | 
32 | Cc1ccccc1-n1nc2c(c1NC(=O)c1c(-c3ccccc3Cl)noc1C)CS(=O)(=O)C2 | active: 8.2 µM | 
33 | COc1cccc([C@@H]2CC=C(C(=O)O)[C@H](c3ccc(Cl)cc3)N2S(=O)(=O)c2ccc(C)cc2)c1 | inconclusive: 18.4 µM [rising, single point] | 
34 | Cc1ccc2c(c1)[C@H]1[C@H](CO2)[C@H](c2ccccc2)[C@]2(C)C(=O)N(Cc3ccc(F)cc3)CC(=O)N12 | inactive | 
35 | CCN(CC(=O)Nc1ccc(OC)cc1)C(=O)Cc1coc2cc(C)c(C)cc12 | active: 16.4 µM | 
36 | Cc1cc(-c2n[nH]c(=S)n2-c2ccccc2C)cs1 | inactive | 
37 | COc1ccc(CCNC(=O)c2ccc(CSc3ccccc3)o2)cc1 | inconclusive: 20.6 µM [cytotoxic, single point] | 
38 | O=C(c1ccc(S(=O)(=O)N2CCOCC2)cc1)N1CCN(c2cccc(Cl)c2)CC1 | active: 14.6 µM | 
39 | CCCNC(=O)C(=O)NCC(c1ccc2c(c1)OCO2)N1CCOCC1 (stereo unspecified) | inactive | 
40 | CCCCCn1c(CNC(=O)CCC)nc2ccccc21 | inconclusive: 25.9 µM [cytotoxic, partial curve, poor fit] | 
41 | Cc1ccc(CNc2ncccc2-c2nc3cc(Cl)ccc3o2)cc1 | inconclusive: 25.9 µM [cytotoxic, partial curve, poor fit] | 
42 | NCCNc1cc(N2CCCC2)ccc1[N+](=O)[O-] | inactive | 
43 | C=CCNC(=S)NNC(=O)c1ccc(Br)cc1 | active: 11.6 µM | 
44 | CCOc1ccc(NC(=S)N(CCN2CCOCC2)Cc2cc3cc4c(cc3[nH]c2=O)OCO4)cc1 | inactive | 
45 | COc1ccccc1N1CCN(CC(=O)c2ccc(F)cc2)CC1 | inactive | 
46 | CCOC(=O)CCSc1nc(C)c2ccccc2n1 | inconclusive: 11.6 µM [rising, partial curve, poor fit] | 

Exported with each value named: part of the list above
CCCN(CC1CC1)C(=O)COC(=O)c1[nH]c(C)c(C(=O)OCC)c1C
  Potency: inconclusive: 23.1 µM [cytotoxic, partial curve, poor fit]
O=C(Cc1ccc(S(=O)(=O)N2CCOCC2)s1)Nc1cc(C(F)(F)F)ccc1N1CCCC1
  Potency: inactive
CCCCCn1c(CNC(=O)CCC)nc2ccccc21
  Potency: inconclusive: 25.9 µM [cytotoxic, partial curve, poor fit]
CCOc1ccc(NC(=S)N(CCN2CCOCC2)Cc2cc3cc4c(cc3[nH]c2=O)OCO4)cc1
  Potency: inactive
